From doi:10.1101/2025.08.28.672664
Like-named read-outs stand apart in the source and are kept apart here. These are yes or no findings as the source states them, for the method shown. Some entries that bind do so weakly or less than the wild type.

By UniProt entry, the sequences of proteins in these tests, tags left out.
UniProt F4I3M3: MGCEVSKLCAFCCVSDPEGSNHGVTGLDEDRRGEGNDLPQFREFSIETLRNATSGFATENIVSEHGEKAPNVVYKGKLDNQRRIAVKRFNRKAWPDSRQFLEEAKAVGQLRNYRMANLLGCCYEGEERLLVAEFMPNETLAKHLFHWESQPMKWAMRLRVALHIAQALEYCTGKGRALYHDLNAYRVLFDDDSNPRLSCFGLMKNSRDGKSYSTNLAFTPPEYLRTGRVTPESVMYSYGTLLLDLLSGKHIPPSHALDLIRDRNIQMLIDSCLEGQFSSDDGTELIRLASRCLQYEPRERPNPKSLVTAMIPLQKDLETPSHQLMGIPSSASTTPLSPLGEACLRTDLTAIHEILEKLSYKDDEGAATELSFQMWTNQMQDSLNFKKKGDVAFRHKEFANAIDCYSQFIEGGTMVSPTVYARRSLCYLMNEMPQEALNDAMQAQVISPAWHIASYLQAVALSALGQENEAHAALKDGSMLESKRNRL
UniProt Q9FHD7: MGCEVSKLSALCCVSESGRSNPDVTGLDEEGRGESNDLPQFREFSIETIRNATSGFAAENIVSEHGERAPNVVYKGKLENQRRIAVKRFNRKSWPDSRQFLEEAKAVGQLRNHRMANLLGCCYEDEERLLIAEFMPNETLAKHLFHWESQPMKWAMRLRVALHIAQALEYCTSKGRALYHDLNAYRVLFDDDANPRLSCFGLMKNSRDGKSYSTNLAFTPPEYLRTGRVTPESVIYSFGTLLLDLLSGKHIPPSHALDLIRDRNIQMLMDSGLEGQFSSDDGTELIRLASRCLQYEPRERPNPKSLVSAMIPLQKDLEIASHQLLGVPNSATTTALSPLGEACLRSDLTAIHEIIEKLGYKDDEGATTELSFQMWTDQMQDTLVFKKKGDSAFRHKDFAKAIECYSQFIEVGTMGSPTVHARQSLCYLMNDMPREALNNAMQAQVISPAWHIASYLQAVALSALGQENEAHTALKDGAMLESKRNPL

Columns and labels:
Experiment in all cases: two-hybrid
[1] = molecular target: At-BSK7, yeast hybrid fusion (A. thaliana) (UniProt F4I3M3)
[2] = molecular target: At-BSK7, yeast hybrid fusion (A. thaliana) (UniProt F4I3M3); remark: listed apart in the source
[3] = molecular target: At-BSK8, yeast hybrid fusion (A. thaliana) (UniProt Q9FHD7)
[4] = molecular target: At-BSK8, yeast hybrid fusion (A. thaliana) (UniProt Q9FHD7); remark: listed apart in the source

Row | Substance | binding [1] | binding [2] | binding [3] | binding [4]
1 | At-BSK7, yeast hybrid fusion (from UniProt F4I3M3 1-487) | binds | – | – | –
2 | At-FLS2_CD^D997A, catalytically inactive cytoplasmic domain of At-FLS2, yeast hybrid prey (from UniProt Q9FL28 828-1173) (domain or fragment) | binds | binds | binds | –
3 | At-BSK8, yeast hybrid fusion (from UniProt Q9FHD7 1-487) | binds | – | – | binds
